These results are taken from paper PMC1287507.

Amino acid sequences for entries named in this document (tags omitted). Residues count along the entry.
UniProt P70414, residues 33-970: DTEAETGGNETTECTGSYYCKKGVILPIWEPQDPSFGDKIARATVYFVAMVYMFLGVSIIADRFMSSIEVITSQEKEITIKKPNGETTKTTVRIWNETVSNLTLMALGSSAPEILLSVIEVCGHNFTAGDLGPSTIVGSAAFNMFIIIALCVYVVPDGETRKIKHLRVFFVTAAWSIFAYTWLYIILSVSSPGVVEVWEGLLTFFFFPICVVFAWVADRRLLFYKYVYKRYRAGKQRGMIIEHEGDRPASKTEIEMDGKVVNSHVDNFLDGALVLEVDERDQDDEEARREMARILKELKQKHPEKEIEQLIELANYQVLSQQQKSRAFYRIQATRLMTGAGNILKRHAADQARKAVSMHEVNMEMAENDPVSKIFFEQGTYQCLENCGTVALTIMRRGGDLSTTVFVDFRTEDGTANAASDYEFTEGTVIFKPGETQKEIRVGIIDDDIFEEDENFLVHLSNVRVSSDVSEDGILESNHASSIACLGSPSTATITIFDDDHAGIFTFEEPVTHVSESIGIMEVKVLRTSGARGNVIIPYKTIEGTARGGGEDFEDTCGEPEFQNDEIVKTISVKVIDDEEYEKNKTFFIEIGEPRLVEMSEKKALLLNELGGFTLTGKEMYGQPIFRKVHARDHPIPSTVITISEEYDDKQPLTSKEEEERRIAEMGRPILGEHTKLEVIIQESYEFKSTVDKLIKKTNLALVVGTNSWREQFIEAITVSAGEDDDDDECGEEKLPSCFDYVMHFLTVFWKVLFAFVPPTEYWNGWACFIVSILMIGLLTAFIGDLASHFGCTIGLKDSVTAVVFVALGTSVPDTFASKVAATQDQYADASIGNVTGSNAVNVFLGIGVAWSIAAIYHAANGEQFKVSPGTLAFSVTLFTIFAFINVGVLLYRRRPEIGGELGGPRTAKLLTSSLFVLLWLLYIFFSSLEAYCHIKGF
UniProt O55143: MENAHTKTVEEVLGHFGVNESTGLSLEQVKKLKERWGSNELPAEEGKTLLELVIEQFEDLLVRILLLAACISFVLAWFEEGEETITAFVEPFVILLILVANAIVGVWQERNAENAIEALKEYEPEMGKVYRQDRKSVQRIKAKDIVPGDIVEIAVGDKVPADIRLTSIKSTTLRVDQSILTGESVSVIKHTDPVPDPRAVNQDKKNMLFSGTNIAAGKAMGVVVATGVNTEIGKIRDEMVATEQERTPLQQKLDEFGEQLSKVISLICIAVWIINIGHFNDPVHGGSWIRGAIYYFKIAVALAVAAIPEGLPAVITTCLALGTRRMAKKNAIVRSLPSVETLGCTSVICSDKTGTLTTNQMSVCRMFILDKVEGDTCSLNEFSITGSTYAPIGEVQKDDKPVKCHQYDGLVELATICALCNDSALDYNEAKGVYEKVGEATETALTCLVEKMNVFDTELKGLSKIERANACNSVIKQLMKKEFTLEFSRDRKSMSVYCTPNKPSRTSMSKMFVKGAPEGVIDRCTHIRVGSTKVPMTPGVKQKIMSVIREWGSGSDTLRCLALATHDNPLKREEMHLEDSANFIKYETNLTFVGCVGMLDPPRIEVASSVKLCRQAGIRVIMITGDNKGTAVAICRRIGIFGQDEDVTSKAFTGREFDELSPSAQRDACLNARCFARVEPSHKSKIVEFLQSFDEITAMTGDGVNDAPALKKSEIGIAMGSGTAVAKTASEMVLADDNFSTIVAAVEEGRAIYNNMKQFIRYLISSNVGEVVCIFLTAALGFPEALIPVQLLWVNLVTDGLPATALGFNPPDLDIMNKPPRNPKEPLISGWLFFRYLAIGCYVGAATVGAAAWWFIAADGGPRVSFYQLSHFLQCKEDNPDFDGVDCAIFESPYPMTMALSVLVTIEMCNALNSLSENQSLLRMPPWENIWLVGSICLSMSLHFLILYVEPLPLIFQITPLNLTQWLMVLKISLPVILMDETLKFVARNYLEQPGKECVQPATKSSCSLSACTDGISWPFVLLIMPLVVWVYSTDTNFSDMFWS

Results are given in words; binding and its absence hold for the method and conditions named. Binding seen in cells or lysates may run through a third protein.

Test in all cases: co-IP; detergent-soluble extracts (1.5% Triton X-100, 0.75% deoxycholate; 100,000g supernatant) of adult mouse heart; immunoprecipitation with antibody to each protein, immunoblot of associated proteins
In assay [1] the target is Na/Ca exchanger 1 (endogenous, mouse) (mouse (endogenous in mouse heart and brain)) (UniProt P70414).
In assay [2] the target is Na/K ATPase alpha 2 isoform (endogenous, mouse heart) (mouse (endogenous in mouse heart)) (UniProt Q6PIE5).
The target of assay [3] is SR Ca^2+ ATPase (SERCA2) (endogenous, mouse heart) (mouse (endogenous in mouse heart)) (UniProt O55143).

“SR Ca^2+ ATPase (SERCA2) (endogenous, mouse heart) (from UniProt O55143 1-1044)”: the binding result in assay [1] and in assay [2] was “no binding” in each case.

With “Na/Ca exchanger 1 (endogenous, mouse) (from UniProt P70414 33-970)”, the binding result in assay [3] is “no binding”.

With “Na/K ATPase alpha 2 isoform (endogenous, mouse heart) (from UniProt Q6PIE5 1-1020)”, the binding entry in assay [3] was “no binding”.
